This assay is described as follows: qHTS Assay for Lipid Storage Modulators in Drosophila S3 Cells.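 As to cell number change: cells counted by Cell Tracker Red CMTPX staining in the red channel.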 To be noted: BODIPY lipid droplet fluorescence, 18-24 h; for cell number change: measured here: cell count max response, cells fed with added oleic acid. An outline of the steps:
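Drosophila S3 cells got compounds at several concentrations plus oleic acid (400 uM solution). Laser-scanning cytometry with 488 nm excitation read lipid droplets at 500-530 nm and cells at 575-640 nm. Percent activity was relative to 20 uM Triacsin C.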
Background: qHTS replaces the single test concentration by a dilution series.

Setting [1] is: measured here: lipid fluorescence (Fed channel) AC50, cells fed with added oleic acid.
Where [2] appears, read: measured here: cell number channel AC50, cells fed with added oleic acid.

The list shows a part of the results. Shown are side measurements of this screen, not its main read-out; they come without a call. Compounds called inactive in the main read-out are mostly missing here. The note in brackets gives the kind of curve behind each potency; many fits are weak.

For `C#CCn1c(=NC(=O)c2cc(-c3cccs3)nc3ccccc23)sc2cc(S(N)(=O)=O)ccc21`, the cell number change is -8.7%. Further, under setting [1], the AC50 (in general, the concentration at which the activity in the assay is half-maximal) was 0.517 µM [rising, full curve]. In the case of `Cn1c(=O)c2c(nc(N/N=C/c3ccc(OC(=O)c4ccco4)cc3)n2Cc2ccc(F)cc2)n(C)c1=O`, the cell number change is -29.8%. Besides, the AC50 under setting [1] was 13 µM [falling, partial curve]. As to `Cn1c(C(C#N)C2=C(Cl)C(=O)N(c3ccccc3)C2=O)nc2ccccc21` (centres undefined), the cell number change amounted to 12.2%. Further, under setting [1], the AC50 is 9.2 µM [falling, partial curve]. Regarding `COc1cc(OC)c(C(=O)OCC(=O)c2cc(C)n(CC3CCCO3)c2C)cc1OC` (centres undefined), the cell number change came out at 41.8%. In addition, the AC50 under setting [2] is 18.4 µM [rising, single point]. The AC50 under setting [1] was 2.59 µM [rising, full curve]. `Cc1ccc(NC(=O)CSc2nnc(CNC(=O)c3ccccc3F)o2)cc1Cl`: the cell number change is -9.07%. Under setting [1], the AC50 is 29.1 µM [falling, single point]. Consider `Clc1ccc(OCCN2CCCCC2)cc1Cl`, for which, under setting [1], the AC50 is 1.64 µM [falling, full curve, poor fit].

For `Cc1ccc(-n2c(SCC(=O)Nc3ncc(Cl)cc3Cl)nc3ccccc32)cc1`, the cell number change was 16.7%. Moreover, the AC50 under setting [2] is 4.11 µM [falling, single point]. Moreover, the AC50 under setting [1] was 13 µM [falling, partial curve, poor fit]. Regarding `COC(=O)CSc1nc2sccc2c(=O)n1-c1ccccc1`, the cell number change is 5.41%. Consider `COc1ccc(NC2(c3ccc(Cl)cc3)C(=O)c3ccccc3C2=O)cc1`, for which the AC50 under setting [1] was 0.00517 µM [rising, full curve, poor fit].

Turning to `Cc1ccc(NC(=O)c2cc(NC(=O)C3CC=CCC3C(=O)O)ccc2N2CCOCC2)cc1` (centres undefined), the cell number change is -9.09%. Same read-out and setting: with `COc1ccc(/C=C/C(=O)OCC(=O)NCc2ccco2)c(OC)c1` the figure was 13.3%. On to `O=c1[nH]c2ccc(S(=O)(=O)N3CCN(c4ccccc4)CC3)cc2[nH]c1=O`, for which the cell number change is 4.76%. In addition, the AC50 under setting [1] was 4.61 µM [falling, single point].

Regarding `C#CCOc1ccc2c3c(c(=O)oc2c1)CCCC3`, the cell number change is 1.76%. In addition, under setting [1], the AC50 is 2.06 µM [rising, full curve]. For `O=C(Oc1ccc2c(c1)OCO2)C12CC3CC(CC(C3)C1)C2`, the cell number change is -41.3%. Also, under setting [2], the AC50 was 14.6 µM [falling, single point]. The AC50 under setting [1] is 14.6 µM [falling, partial curve].

On to `CCOc1ccc(C(C)NC(=O)c2ccc3c(c2)NC(=O)C(C)S3)cc1OCC` (centres undefined), for which the cell number change was 3.63%. For the same compound, the AC50 under setting [1] is 0.164 µM [rising, full curve, poor fit]. For `OC(CN1CCc2ccccc2C1)c1ccccc1` (centres undefined), the cell number change is -8.23%. Further, the AC50 under setting [2] was 0.00461 µM [falling, full curve, poor fit]. Further, the AC50 under setting [1] is 0.00517 µM [falling, full curve, poor fit].

For the compound `COc1ccc(-c2csc3ncnc(N4CCN(S(=O)(=O)c5ccc(C)cc5)CC4)c23)cc1`, the cell number change is 29.3%. In the case of `CSc1nc2nccc(-c3ccc(Oc4ccccc4)cc3)n2n1`, the cell number change was 11.5%. The concentration at half-maximal activity (AC50) under setting [2] was 0.206 µM [rising, full curve, poor fit]. For the same compound, the AC50 under setting [1] was 0.13 µM [rising, full curve, poor fit]. Take `CCOC(=O)CSc1nnc(NC(=O)NC(C)C)s1`: the cell number change is -15.7%. Also, the AC50 under setting [2] was 0.146 µM [falling, full curve, poor fit]. Take `Cc1cc(C)n(Cc2cccc(F)c2)c(=O)c1C#N`: the cell number change was -11.7%.

As for `Cc1nnc(SCC(=O)Nc2c(Cl)cccc2Cl)[nH]c1=O`, the cell number change amounted to 36.3%. For `COc1ccc(N2CCN(CCNC(=O)Nc3ccc(C)cc3Cl)CC2)cc1`, under setting [1], the AC50 was 6.51 µM [falling, single point]. As to `Cc1cc(C)nc(SCC(=O)N/N=C/c2cc(C)n(-c3ccccc3C)c2C)n1`, the cell number change stood at 17.5%. Moreover, the AC50 under setting [1] was 29.1 µM [rising, single point]. `COc1cc(C(=O)N2CCN(S(=O)(=O)c3ccc(C)cc3C)CC2)ccc1OCC(=O)N1CCOCC1`: the cell number change is 16.5%. Regarding `C[n+]1cn(/N=C/c2ccccc2)c2ccccc21`, the cell number change came to 7.82%. For the same compound, the AC50 under setting [1] is 3.66 µM [falling, single point]. `CC(=O)c1ccc(OC(=O)C2c3ccccc3Oc3ccccc32)cc1`: the cell number change was -30.1%. Also, the AC50 under setting [2] was 29.1 µM [falling, single point]. Further, the AC50 under setting [1] was 23.1 µM [falling, partial curve, poor fit]. For `O=c1cc(CO)oc(CN2CCN(Cc3ccccc3)CC2)c1O`, the cell number change was -16.4%. In addition, the AC50 under setting [1] is 23.1 µM [rising, single point]. Consider `O=C(N/N=C\c1ccc(F)cc1)c1csnn1`, for which the cell number change worked out at 116%. As for `O=[N+]([O-])c1ccccc1S(=O)(=O)N1CCN(Cc2ccccc2)CC1`, the cell number change came to 4.99%. Also, the AC50 under setting [1] is 10.3 µM [falling, single point].

As to `C/C(Cn1nnc([N+](=O)[O-])n1)=N\NC(=O)c1ccc(O)cc1O`, the cell number change worked out at 119%. The AC50 under setting [2] is 4.11 µM [rising, full curve, poor fit]. For `O=C(O)CCc1ccc(-c2ccc(Cl)cc2)n1CC(=O)O`, the cell number change is -21.5%. For the same compound, the AC50 under setting [1] is 29.1 µM [falling, single point]. Regarding `CCC(=O)Nc1cccc(NC(=O)CSc2nnnn2C)c1`, the cell number change came to 21.3%. The AC50 under setting [1] was 5.17 µM [rising, partial curve].

As to `CC(C)CN(CC(C)C)C(=O)COc1ccccc1C(N)=O`, the cell number change was found to be 33.7%. Moreover, under setting [2], the AC50 was 0.00461 µM [rising, full curve]. Also, the AC50 under setting [1] was 0.00411 µM [rising, full curve, poor fit].

With `CCOC(=O)/C(N=Nc1ccc(C(=O)O)cc1[N+](=O)[O-])=C(\C)O`, the cell number change turned out to be 4.74%. As for `COc1ccc(-c2cc(C(F)(F)F)c3c(N)c(C(=O)NCCSC)sc3n2)cc1`, the cell number change amounted to 89.9%. The AC50 under setting [2] is 29.1 µM [rising, single point]. For the same compound, the AC50 under setting [1] was 6.51 µM [falling, single point]. `COCCCN1C(=O)c2ccc(C(=O)OCC(=O)N(C)c3ccccc3)cc2C1=O`: the AC50 under setting [2] was 0.164 µM [rising, single point]. Consider `COc1ccc(S(=O)(=O)Nc2ccccc2OC)cc1NC(=O)CC1CC2CCC1C2` (centres undefined), for which the cell number change worked out at 16.7%. Moreover, the concentration at half-maximal activity (AC50) under setting [1] was 2.91 µM [rising, partial curve]. As to `O=C(CCNS(=O)(=O)c1ccc(Cl)cc1)N1CCCCCC1`, the cell number change came to 33.7%.

For the compound `Cc1ccc(SCCN2CCN(C)CC2)cc1`, the cell number change was -3.15%. On the same count and under the same terms, then `Cc1noc(C)c1CSc1nnc(-c2c[nH]c3ccccc23)n1-c1ccc(Cl)cc1`, with -10.5%.

As to `Cc1cc(C(=O)OCC(=O)NC(C)C)c(C)o1`, the cell number change turned out to be 4.53%. In addition, the AC50 under setting [1] was 0.92 µM [falling, full curve]. Consider `Cn1c2c(c(=O)n(C)c1=O)C1c3cc(Cl)ccc3OCC1CO2` (centres undefined), for which the cell number change is 31.3%. In addition, the AC50 under setting [2] is 11.6 µM [rising, partial curve, poor fit]. Besides, under setting [1], the AC50 was 4.61 µM [falling, single point].

Turning to `Clc1ccc(-c2csc(Nc3cccnc3)n2)cc1`, the cell number change was 17.4%. Besides, under setting [1], the AC50 was 0.13 µM [rising, full curve, poor fit]. Turning to `COc1ccc2[nH]c3c(N4CCN(Cc5ccc6c(c5)OCO6)CC4)ncnc3c2c1`, the cell number change is -14.1%. Besides, the AC50 under setting [1] was 29.1 µM [falling, single point].

For `COc1ccc(NC(=S)N2CCN(S(=O)(=O)c3ccc(F)cc3)CC2)cc1OC`, under setting [2], the AC50 is 0.092 µM [falling, full curve, poor fit].

Regarding `CN(C)c1ccc(CN(C(=O)c2ccco2)C2CCS(=O)(=O)C2)cc1` (centres undefined), the cell number change worked out at 7.21%. Under setting [1], the AC50 is 0.651 µM [rising, single point]. Consider `COc1ccc(S(=O)(=O)NCCc2ccc(F)cc2)cc1`, for which the AC50 under setting [1] was 0.58 µM [falling, single point].

In the case of `O=C(Nc1ccc([N+](=O)[O-])cc1)/C(=C/c1cccc([N+](=O)[O-])c1)NC(=O)C1CCCCC1`, the cell number change was -0.368%. The AC50 under setting [1] is 8.2 µM [falling, partial curve, poor fit]. Regarding `Cc1cc(Cl)cc(C)c1OCCn1ccnc1`, the cell number change was determined as 16.8%. For the same compound, under setting [1], the AC50 was 2.91 µM [rising, partial curve].

Regarding `Cc1ccc(CCNC(=O)CN2C(=O)COc3ccccc32)cc1`, the cell number change was determined as 3.65%.

Consider `O=C(CSc1n[nH]c(-c2ccccn2)n1)Nc1ccc(F)cc1`, for which the cell number change was 4.17%. Moreover, under setting [1], the AC50 is 25.9 µM [falling, single point].

Take `CC1CN(c2nc3c(c(=O)n(C)c(=O)n3C)n2Cc2c(F)cccc2Cl)CC(C)O1` (centres undefined): the cell number change is 0.538%. For the compound `COC(=O)c1ccccc1S(=O)c1snnc1C` (centres undefined), the cell number change is 126%. Besides, under setting [2], the AC50 was 6.51 µM [falling, single point]. Also, under setting [1], the AC50 was 6.51 µM [falling, single point]. `COc1cccc(C(=O)CN2C(=O)C(C)(C)Oc3ccc(C(=O)N4CCCCCC4)cc32)c1`: the cell number change worked out at 4.21%. As to `CC[n+]1ccc(/C=C/c2ccc(N(C)C)cc2)c2ccccc21`, the cell number change was -102%. For the same compound, the AC50 under setting [2] is 23.1 µM [falling, partial curve]. Also, the AC50 under setting [1] is 1.46 µM [falling, full curve]. With `COc1ccc(-c2nc3ccccc3s2)cc1O`, the AC50 under setting [2] was 1.64 µM [falling, partial curve]. Consider `O=C1c2ccccc2C(Nc2ccc3c(c2)OCCO3)N1Cc1ccc2c(c1)OCO2` (centres undefined), for which the cell number change worked out at 44.6%. Under setting [2], the AC50 is 0.411 µM [rising, full curve]. As for `Cc1sc2nc(CC(=O)N3CCCC3)[nH]c(=O)c2c1C`, under setting [2], the AC50 is 0.58 µM [rising, single point]. On to `O=C(CN1CCN(c2ccccc2)CC1)NC(=O)NCc1ccco1`, for which the cell number change came to 2.51%. Besides, the AC50 under setting [1] was 2.91 µM [falling, full curve]. On to `O=C(Nc1ccccc1N1CCOCC1)C1=NN(c2ccccc2)C(=O)CC1`, for which the cell number change was -2.93%. Further, under setting [1], the AC50 was 2.31 µM [rising, partial curve]. For `COc1cc(-c2nc(-c3ccc4c(c3)-c3ccccc3S4(=O)=O)c(-c3ccccc3)[nH]2)cc(OC)c1O`, the cell number change is 12.2%. The AC50 under setting [1] was 6.51 µM [rising, single point].

For `Cc1ccc(CSC2=Nc3sccc3C3=NC(=O)CN23)cc1`, the cell number change was 2.31%. The AC50 under setting [1] was 2.31 µM [falling, partial curve, poor fit]. On to `NC(=O)Nc1ccc(C(=O)OCC(=O)Nc2sccc2C(N)=O)cc1`, for which the cell number change worked out at 62.5%. Besides, the AC50 under setting [2] was 14.6 µM [rising, partial curve, poor fit].

These data come from PubChem BioAssay AID2685 (National Center for Advancing Translational Sciences (NCATS), 2010).
